Taken from: PubChem BioAssay AID1259254 (NCATS, 2017)
Assay: 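Finding genes that stop cells copying their DNA twice in one cycle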 (primary screen). Cell system: human HCT116 colorectal cancer cells. Reagent: single siRNA against human genes. Duration: 3 days. Read-out: 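Imaged Hoechst DNA stain sorts each cell into a cycle phase by DNA amount; per plate, G2 fraction set to 0% for non-targeting and 100% for GMNN siRNA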. Reading the numbers: G2 robust z-score: higher = more G2 cells, more excess DNA replication. Rule for the call: 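Active siRNAs have a G2 robust z of 5 or more median absolute deviations over the median, which in these data means about 38% or higher of GMNN control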.
Shown is an unselected part of about 59,000 reagents. About 1,550 of all reagents (2.6%) count as active. 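G2 share is only a proxy for re-replication; each gene was hit by three separate siRNAs, and active genes were retested.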 Entries without a mark were called inactive. The numbers tell different reagents against one gene apart. Not all columns of the deposit are shown. The record does not give: the amount of reagent.

G2 robust z-score, by gene knocked down and reagent
SH3PXD2B: #1 -0.441; #2 -0.531; #3 -1.21
TMEM258: #1 -0.374; #2 0.0577; #3 -0.896
DIAPH1: #1 0.258; #2 1.37; #3 1.74
KIAA1328: #1 1.58; #2 -0.121; #3 -0.869
CRYBG3: #1 -0.632; #2 0.429; #3 -0.00357
MUL1: #1 -0.446; #2 -0.954; #3 0.165
RUSC1-AS1: #1 1.7; #2 -0.451; #3 1.76
NKD2: #1 -0.624; #2 -0.216; #3 1.02
QRICH2: #1 0.656; #2 -0.485; #3 -1.11
FGF12: #1 1.77; #2 -0.37; #3 0.877
